Data as given in PubChem BioAssay AID1259308 (NCATS, 2017).

- Aim: 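Genes whose loss raises luciferase production in HEK293 cells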 (primary screen)
- System: human HEK293 embryonic kidney cells stably expressing firefly luciferase (HEK-CMV-Luc2-Hygro)
- Reagent: single siRNA against human genes, 0.8 pmol siRNA per well
- Duration: 72 h
- Read-out: 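Reporter luminescence and viable-cell signal on separate replicate plates, given as percent of non-targeting control and median/MAD z-scores, plus per-cell luciferase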
- Scale: total luciferase, z-score and total luciferase, % of control: higher = more reporter protein produced; luciferase per cell, z-score: higher = more reporter output per viable cell
- Rule for the call: 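Active when the median/MAD z-score for overall luciferase is greater than 3; a gene was taken forward for validation with new siRNAs if at least two of its three siRNAs passed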
- Calls: active = raised luciferase; inactive = no rise
The whole screen tested about 59,000 reagents; this is a random part of them. About 1,510 of them (2.6%) were called active. 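Calls use total luciferase alone and ignore viability, so some active siRNAs may act by altering cell number.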 Reagents against one gene are numbered here. Further read-outs or replicates are left out here.

no.	gene	reagent	total luciferase, z-score	total luciferase, % of control	luciferase per cell, z-score	call
1	ZDHHC11B	1	-1.26	56.7	-1.41	inactive
2	ZDHHC11B	2	-0.442	73.1	-0.245	inactive
3	ZDHHC11B	3	1.34	108	1.18	inactive
4	IQCF2	1	0.32	88.2	1.37	inactive
5	IQCF2	2	0.865	99.1	1.64	inactive
6	IQCF2	3	0.693	95.7	0.626	inactive
7	LOXL2	1	0.0746	83.4	-0.0198	inactive
8	LOXL2	2	-0.901	64	-0.0155	inactive
9	LOXL2	3	1.08	103	1.16	inactive
10	LGI3	1	-0.284	76.2	-0.278	inactive
11	LGI3	2	0.778	97.4	0.691	inactive
12	LGI3	3	-1.34	55.3	-0.00701	inactive
13	HSD17B1	1	-0.711	67.7	-0.774	inactive
14	HSD17B1	2	0.696	95.7	0.104	inactive
15	HSD17B1	3	-2.56	31	-2.99	inactive
16	DNAJC13	1	0.815	98.1	0.584	inactive
17	DNAJC13	2	-0.342	75.1	-0.211	inactive
18	DNAJC13	3	-0.95	63	-0.519	inactive
19	PAFAH1B3	1	-0.841	65.2	-1.54	inactive
20	PAFAH1B3	2	-0.694	68.1	-0.688	inactive
21	PAFAH1B3	3	0.0274	82.4	-0.214	inactive
22	LINC00938	1	3.03	142	2.35	active
23	LINC00938	2	-1.17	58.7	-0.631	inactive
24	LINC00938	3	-0.189	78.1	-0.745	inactive
25	RNMT	1	0.388	89.6	-0.339	inactive
26	RNMT	2	0.394	89.7	0.486	inactive
27	RNMT	3	0.775	97.3	0.291	inactive
28	UBE2A	1	-0.521	71.5	-0.49	inactive
29	UBE2A	2	-1.75	47.1	-2.5	inactive
30	UBE2A	3	0.181	85.5	-0.155	inactive
31	SPATA45	1	-0.76	66.8	-0.675	inactive
32	SPATA45	2	0.382	89.5	0.714	inactive
33	SPATA45	3	0.483	91.5	1.71	inactive
34	SLC47A1	1	0.821	98.2	0.777	inactive
35	SLC47A1	2	0.921	100	1.49	inactive
36	SLC47A1	3	0.726	96.3	0.0577	inactive
37	KRTAP2-2	1	0.245	86.8	1.04	inactive
38	KRTAP2-2	2	-0.806	65.8	-0.61	inactive
39	KRTAP2-2	3	0.387	89.6	0.215	inactive
40	SOCS4	1	-0.895	64.1	-1.07	inactive
41	SOCS4	2	0.781	97.4	0.391	inactive
42	SOCS4	3	-0.603	69.9	-0.967	inactive
43	KIAA0319L	1	-1.28	56.3	-1.46	inactive
44	KIAA0319L	2	-0.298	76	-0.576	inactive
45	KIAA0319L	3	0.181	85.5	0.672	inactive
46	GPR21	1	1.7	116	2.42	inactive
47	GPR21	2	0.154	84.9	-0.435	inactive
48	GPR21	3	0.359	89	0.138	inactive
49	MARK2	1	3.65	154	1.63	active
50	MARK2	2	2.12	124	1.05	inactive
51	MARK2	3	3.68	155	2.26	active
52	LOC653303	1	3.69	155	1.91	active
53	LOC653303	2	2.58	133	2.07	inactive
54	LOC653303	3	1.47	111	1.6	inactive
55	CRABP2	1	-0.766	66.6	-1.08	inactive
56	CRABP2	2	0.14	84.7	-0.23	inactive
57	CRABP2	3	-1.39	54.3	-0.908	inactive

Targets above whose target name begins with R or r (3):
gene	reagent	total luciferase, z-score	total luciferase, % of control	luciferase per cell, z-score	call
RNMT	1	0.388	89.6	-0.339	inactive
RNMT	2	0.394	89.7	0.486	inactive
RNMT	3	0.775	97.3	0.291	inactive
